PubChem BioAssay AID662 (National Center for Advancing Translational Sciences (NCATS), 2007)
Some of the results follow. These are further read-outs of the screen, such as a control signal, another cell line or another target. No call is given for them. The list favours compounds with an active or inconclusive main result. Potencies come from curve fits of mixed quality, noted in brackets.

Test: Cell signaling CRE-BLA (Fsk stim)
Settings: CHO CRE-bla reporter (cAMP response element driving beta-lactamase), forskolin EC10, beta-lactamase ratio; measured here: 460 nm blue channel
Method in brief: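 Cells were plated overnight at 37 °C, exposed to compound titrations plus EC10 NKH 477 for 3 h, then given CCF4 dye for 2 h at room temperature. Blue/green (460/530 nm) ratio was converted to %Activity and AC50 values calculated.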

SMILES	AC50
COC(=O)c1ccc(CSc2nc(C)nc3c2c(=O)n(C)c(=O)n3C)o1	2.51 µM [rising, full curve]
Cc1occc1C(=O)Nc1ccc2c(c1)OCO2	0.01 µM [falling, full curve]
COc1cccc2cc(C(C)N(CCCN3CCOCC3)C(=O)Nc3ccc(Cl)cc3)oc12 (configuration not stated)	1.58 µM [rising, partial curve]
CC(=O)N1CCc2cc(S(=O)(=O)Nc3cccc(C(F)(F)F)c3)ccc21	2 µM [rising, full curve]
Cc1ccc(C)c(C(=O)CSc2n[nH]c(-c3ccncc3)n2)c1	0.316 µM [falling, partial curve]
Cc1ccc(-n2c(CSc3nc(C)cc(C)n3)nnc2SCC(=O)NCc2ccco2)cc1	25.1 µM [rising, single point]
N#Cc1c(-c2cccs2)cc(-c2cccnc2)nc1N	1.26 µM [rising, partial curve]
COc1nc(Nc2ccc3c(c2)OCO3)nc(OC)n1	2.51 µM [rising, full curve, poor fit]
CCS(=O)(=O)N1CCC(C(=O)NCCCN2CCCC2)CC1	0.0501 µM [falling, partial curve, poor fit]
Cn1c(=O)c2c(ncn2CC(=O)OCC(=O)NC2CCCc3ccccc32)n(C)c1=O (configuration not stated)	25.1 µM [rising, single point]
CCOC(=O)C1CCN(C(c2cccc(F)c2)c2sc3nc(C)nn3c2O)CC1 (configuration not stated)	12.6 µM [rising, single point]
O=c1c(CCc2ccccc2)nc2cnc(Oc3ccccc3)nc2n1C[C@H]1CCCO1	12.6 µM [rising, partial curve]
C=C(C)CSc1nc(C)c(Cc2ccccc2)c(=O)[nH]1	12.6 µM [rising, single point]
COC(=O)c1ccc(Oc2nc(NC(C)C)nc(SC)n2)cc1	12.6 µM [rising, single point]
CCN(CC)CCNc1ccc(CO)c2sc3ccccc3c(=O)c12	3.98 µM [rising, full curve, poor fit]
COc1ccc2[nH]cc(C(=O)CN3CCN(C/C=C/c4ccccc4)CC3)c2c1	25.1 µM [falling, single point]
Cc1c(NC(=O)C2CCCN2S(=O)(=O)c2ccc(Cl)cc2)c(=O)n(-c2ccccc2)n1C (configuration not stated)	3.98 µM [falling, single point]
CC1(C)CC(=O)C2=C(C1)N(CCN1CCOCC1)C1=C(C(=O)CC(C)(C)C1)C2c1cccc(Cl)c1	10 µM [rising, partial curve]
Cc1ccc(C)c(Cc2c(C)nc3c(C(=O)N4CCOCC4)cnn3c2C)c1	7.94 µM [rising, partial curve]
CCOC(=O)c1oc2nc3c(cc2c1N)COC(C)(C)C3	25.1 µM [rising, single point]
O=C(Nc1cccnc1)c1ccccc1Oc1ccccc1	1.26 µM [rising, partial curve, poor fit]

Rewritten with bars between the fields: entries from further up
SMILES | AC50
COc1cccc2cc(C(C)N(CCCN3CCOCC3)C(=O)Nc3ccc(Cl)cc3)oc12 (configuration not stated) | 1.58 µM [rising, partial curve]
COC(=O)c1ccc(Oc2nc(NC(C)C)nc(SC)n2)cc1 | 12.6 µM [rising, single point]
Cc1ccc(C)c(Cc2c(C)nc3c(C(=O)N4CCOCC4)cnn3c2C)c1 | 7.94 µM [rising, partial curve]

Next part.

SMILES	AC50
CCOc1ccc(N(CC(=O)N2CCc3ccccc32)S(=O)(=O)c2c(C)noc2C)cc1	10 µM [falling, partial curve]
O=c1cnc2cnc(Nc3ccccc3)nc2n1Cc1cccs1	2.51 µM [falling, partial curve]
COc1cc(/C=c2\s/c(=C(/C#N)C(=O)N3CCCC3)n(-c3ccccc3)c2=O)ccc1O	2.51 µM [rising, full curve, poor fit]
CN1CCN(c2ncc3nc(-c4ccc(Cl)cc4)c(=O)n(Cc4cccs4)c3n2)CC1	1 µM [rising, full curve]
CCc1c(C(=O)Nc2ccc(OC)cc2)[nH]c(C)c1C(C)=O	2.51 µM [falling, single point]
CCC(C)(C(=O)NC1CCCCC1)N(C(=O)c1cnccn1)c1c(C)n(C)n(-c2ccccc2)c1=O (configuration not stated)	0.00631 µM [falling, full curve, poor fit]
COc1ccc(C2CC(=O)N3C(=C2C#N)SCC3(O)c2ccccc2)cc1 (configuration not stated)	10 µM [rising, single point]
CC(C)CCn1cnc2c(c1=O)c1nc3ccccc3nc1n2Cc1ccc2c(c1)OCO2	0.631 µM [rising, full curve, poor fit]
OC(COCc1ccccc1)CN1CCN(c2ccccc2)CC1 (configuration not stated)	5.01 µM [falling, single point]
C/C=C/Cn1c(Br)nc2c1c(=O)[nH]c(=O)n2C	20 µM [rising, single point]
Cc1ccc(NC(=O)c2cc(-c3cccc(O)c3)on2)cc1C	12.6 µM [falling, single point]
COc1ccc(OC)c(-c2[nH]nc3c2C(c2ccco2)C(C#N)=C(N)O3)c1 (configuration not stated)	5.01 µM [falling, partial curve]
Cc1ccc(C)n1-c1ccc(-c2nnc3n2CCCCC3)s1	5.01 µM [falling, single point]
CCOc1ccc2nc(SCc3ccc(C(=O)OC)o3)[nH]c2c1	12.6 µM [rising, single point]
CC(=NCc1ccco1)C1=C(O)c2ccccc2C1=O	10 µM [rising, partial curve]
Cn1c(C(=O)NCCN2CCc3ccccc3C2)cc2c(=O)n(C)c3ccccc3c21	5.01 µM [rising, partial curve]
COc1ccc(Nc2ncnc3c2cnn3Cc2ccccc2)cc1OC	7.94 µM [rising, partial curve]
COc1ccccc1N1CCN(C(CNS(=O)(=O)c2ccc(C)cc2)c2cccnc2)CC1 (configuration not stated)	1.26 µM [rising, partial curve]
COc1cccc(OCC(=O)Nc2ccccc2NC(C)=O)c1	0.126 µM [falling, full curve]
O=C(NCCc1nc2ccccc2[nH]1)c1ccco1	5.01 µM [falling, single point]
N#Cc1c(N)nc2c(c1-c1ccncc1)CCCCC2	10 µM [rising, partial curve]
